These are yes or no findings as the source states them, for the method shown. Binding seen in cells or lysates may run through a third protein. Some results given as binding are weak or reduced against the parent protein; the word gives no strength.
Tests used:
[1] = target: mUNG2-CFP or mUNG2-YFP Helix-mut_1, expressed in U2OS cells (mouse) (UniProt P97931); test: co-IP; polyclonal GFP antibody coupled to Protein A Dynabeads, nuclease (RNaseA + OmniCleave) treated whole cell extract of transfected U2OS cells expressing tagged UNG2 variants, 4°C overnight; blot for PCNA
[2] = target: mUNG2-CFP or mUNG2-YFP wild type, expressed in U2OS cells (mouse) (UniProt P97931); test: as above

The chains behind the UniProt entries cited, without tags or fusion partners. Where a name states a change or a piece, a line headed by the entry shows the natural chain unless it says otherwise. A line that says so, or that is headed by a name, gives the form on record, which may keep a tag or linker.
UniProt P97931: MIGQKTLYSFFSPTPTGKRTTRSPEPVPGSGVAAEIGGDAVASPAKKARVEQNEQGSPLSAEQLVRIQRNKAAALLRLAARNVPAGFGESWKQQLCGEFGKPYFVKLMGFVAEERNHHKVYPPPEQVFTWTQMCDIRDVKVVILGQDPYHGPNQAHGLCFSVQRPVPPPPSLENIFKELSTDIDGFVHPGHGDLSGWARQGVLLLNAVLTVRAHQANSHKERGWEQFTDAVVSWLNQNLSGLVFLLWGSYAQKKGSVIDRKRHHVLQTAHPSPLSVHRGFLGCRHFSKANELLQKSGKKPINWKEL
mUNG2-CFP or mUNG2-YFP Helix-mut_1, expressed in U2OS cells (P97931, form named): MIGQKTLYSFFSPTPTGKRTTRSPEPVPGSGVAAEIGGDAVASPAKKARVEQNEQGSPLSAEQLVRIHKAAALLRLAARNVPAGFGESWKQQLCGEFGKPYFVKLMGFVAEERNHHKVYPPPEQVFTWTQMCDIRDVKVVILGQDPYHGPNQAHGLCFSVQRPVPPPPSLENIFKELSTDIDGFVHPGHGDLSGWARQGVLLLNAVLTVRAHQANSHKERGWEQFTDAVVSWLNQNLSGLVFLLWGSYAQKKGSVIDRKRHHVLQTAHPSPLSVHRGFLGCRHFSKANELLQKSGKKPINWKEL
UniProt P12004: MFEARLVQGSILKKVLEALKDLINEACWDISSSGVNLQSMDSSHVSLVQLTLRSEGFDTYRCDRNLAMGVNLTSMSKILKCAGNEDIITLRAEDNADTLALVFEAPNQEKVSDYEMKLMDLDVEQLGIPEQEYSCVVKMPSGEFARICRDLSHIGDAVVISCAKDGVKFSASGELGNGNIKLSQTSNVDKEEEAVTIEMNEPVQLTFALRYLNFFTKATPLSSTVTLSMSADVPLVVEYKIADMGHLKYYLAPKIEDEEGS

binding [1]: binds | binding [2]: binds
Substance: PCNA of U2OS cell extract (from UniProt P12004 1-261)

— paper PMC10810282
